Structures can show the parent of a compound that is named as a salt. The list shows a part of the results. This data set is noisy: repeats of one test often differ as much as different tests do.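 FDA-approved drugs were each paired with colistin at one-eighth its MIC and screened against a multidrug-resistant, mcr-1-positive clinical E. coli isolate, with OD600 read after 24 h. Drug-free bacteria served as growth control, plain broth as blank. Combinations were active if OD600 dropped below 0.2.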
system: Escherichia coli 42 (mcr-1-positive clinical isolate); assay: OD600 after 24 h growth with compound plus colistin (absorbance units (OD600)); higher = more bacterial growth (less inhibition); settings: first compound 25 µM; colistin concentration 0.5 ug/mL; incubation time 24 h; 37 °C

Row | SMILES | OD600
1 | CN(C)/N=N/c1[nH]cnc1C(N)=O [Dacarbazine] + CCC(C)CCCC(=O)N[C@@H](CCN)C(=O)N[C@H](C(=O)N[C@@H](CCN)C(=O)N[C@H]1CCNC(=O)[C@H]([C@@H](C)O)NC(=O)[C@H](CCN)NC(=O)[C@H](CCN)NC(=O)[C@H](CC(C)C)NC(=O)[C@@H](CC(C)C)NC(=O)[C@H](CCN)NC1=O)[C@@H](C)O [colistin] | inactive: 1.02
2 | Cc1ccc(Sc2ccccc2N2CCNCC2)c(C)c1 [Vortioxetine] + CCC(C)CCCC(=O)N[C@@H](CCN)C(=O)N[C@H](C(=O)N[C@@H](CCN)C(=O)N[C@H]1CCNC(=O)[C@H]([C@@H](C)O)NC(=O)[C@H](CCN)NC(=O)[C@H](CCN)NC(=O)[C@H](CC(C)C)NC(=O)[C@@H](CC(C)C)NC(=O)[C@H](CCN)NC1=O)[C@@H](C)O [colistin] | inactive: 1.06
3 | O=C(CCCN1CC=C(n2c(=O)[nH]c3ccccc32)CC1)c1ccc(F)cc1 [Droperidol] + CCC(C)CCCC(=O)N[C@@H](CCN)C(=O)N[C@H](C(=O)N[C@@H](CCN)C(=O)N[C@H]1CCNC(=O)[C@H]([C@@H](C)O)NC(=O)[C@H](CCN)NC(=O)[C@H](CCN)NC(=O)[C@H](CC(C)C)NC(=O)[C@@H](CC(C)C)NC(=O)[C@H](CCN)NC1=O)[C@@H](C)O [colistin] | inactive: 0.99
4 | CCCCc1oc2ccc(NS(C)(=O)=O)cc2c1C(=O)c1ccc(OCCCN(CCCC)CCCC)cc1 [Dronedarone hydrochloride] + CCC(C)CCCC(=O)N[C@@H](CCN)C(=O)N[C@H](C(=O)N[C@@H](CCN)C(=O)N[C@H]1CCNC(=O)[C@H]([C@@H](C)O)NC(=O)[C@H](CCN)NC(=O)[C@H](CCN)NC(=O)[C@H](CC(C)C)NC(=O)[C@@H](CC(C)C)NC(=O)[C@H](CCN)NC1=O)[C@@H](C)O [colistin] | inactive: 0.93
5 | COc1ccccc1OCC(O)COC(N)=O (centres undefined) [Methocarbamol] + CCC(C)CCCC(=O)N[C@@H](CCN)C(=O)N[C@H](C(=O)N[C@@H](CCN)C(=O)N[C@H]1CCNC(=O)[C@H]([C@@H](C)O)NC(=O)[C@H](CCN)NC(=O)[C@H](CCN)NC(=O)[C@H](CC(C)C)NC(=O)[C@@H](CC(C)C)NC(=O)[C@H](CCN)NC1=O)[C@@H](C)O [colistin] | inactive: 0.94
6 | C/C(=C\C(=O)OCCCCCCCCC(=O)O)C[C@@H]1OC[C@H](C[C@@H]2O[C@H]2[C@@H](C)[C@H](C)O)[C@@H](O)[C@H]1O [Mupirocin] + CCC(C)CCCC(=O)N[C@@H](CCN)C(=O)N[C@H](C(=O)N[C@@H](CCN)C(=O)N[C@H]1CCNC(=O)[C@H]([C@@H](C)O)NC(=O)[C@H](CCN)NC(=O)[C@H](CCN)NC(=O)[C@H](CC(C)C)NC(=O)[C@@H](CC(C)C)NC(=O)[C@H](CCN)NC1=O)[C@@H](C)O [colistin] | active: 0.037
7 | CCOC(=O)C(C)(C)Oc1ccc(Cl)cc1 [Clofibrate] + CCC(C)CCCC(=O)N[C@@H](CCN)C(=O)N[C@H](C(=O)N[C@@H](CCN)C(=O)N[C@H]1CCNC(=O)[C@H]([C@@H](C)O)NC(=O)[C@H](CCN)NC(=O)[C@H](CCN)NC(=O)[C@H](CC(C)C)NC(=O)[C@@H](CC(C)C)NC(=O)[C@H](CCN)NC1=O)[C@@H](C)O [colistin] | inactive: 1.06
8 | NC(=O)N1c2ccccc2C=Cc2ccccc21 [Carbamazepine] + CCC(C)CCCC(=O)N[C@@H](CCN)C(=O)N[C@H](C(=O)N[C@@H](CCN)C(=O)N[C@H]1CCNC(=O)[C@H]([C@@H](C)O)NC(=O)[C@H](CCN)NC(=O)[C@H](CCN)NC(=O)[C@H](CC(C)C)NC(=O)[C@@H](CC(C)C)NC(=O)[C@H](CCN)NC1=O)[C@@H](C)O [colistin] | inactive: 0.843
9 | O=C(NC[C@H]1CN(c2ccc(N3CCOCC3=O)cc2)C(=O)O1)c1ccc(Cl)s1 [Rivaroxaban] + CCC(C)CCCC(=O)N[C@@H](CCN)C(=O)N[C@H](C(=O)N[C@@H](CCN)C(=O)N[C@H]1CCNC(=O)[C@H]([C@@H](C)O)NC(=O)[C@H](CCN)NC(=O)[C@H](CCN)NC(=O)[C@H](CC(C)C)NC(=O)[C@@H](CC(C)C)NC(=O)[C@H](CCN)NC1=O)[C@@H](C)O [colistin] | inactive: 1.06

— the supplement of paper PMC11546906
